Laboratory results published in PMC8512764 (Molecules, 2021).

Columns and labels:
[1] = general procedure: Fmoc solid-phase peptide synthesis; H-Gly-2-ClTrt resin; HATU/HOAt/collidine; conditions: whole synthesis, scale 0.044 mmol, TFA salts
[2] = general procedure: Fmoc solid-phase peptide synthesis; H-Asp(tBu)-2-ClTrt resin; HATU/HOAt/collidine; conditions: whole synthesis, scale 0.044 mmol, TFA salts
[3] = general procedure: Fmoc solid-phase peptide synthesis; H-Glu(tBu)-2-ClTrt resin; HATU/HOAt/collidine; conditions: whole synthesis, scale 0.043 mmol, TFA salts
[4] = general procedure: Fmoc solid-phase peptide synthesis; 2-chlorotrityl chloride resin preloaded with Asp(tBu), Glu(tBu) or Gly; HATU/HOAt/collidine; conditions: late stage modification step, TFA salts

## H-Asp(tBu)-1-(MPUPA)Amp-Arg(Pmc)-Gly-OH
[1]
  crude mass: 35 mg
  crude yield: 78%

## H-Leu-1-(MPUPA)Amp-Val-Asp(tBu)-OH
[2]
  crude mass: 33.2 mg
  crude yield: 98%

## H-Leu-1-(MPUPA)Amp-Val-Glu(tBu)-OH
[3]
  crude mass: 34.2 mg
  crude yield: 98%

## H-Val-1-(MPUPA)Amp-Leu-Asp(tBu)-OH
[2]
  crude mass: 34.0 mg
  crude yield: 99%

## H-Val-1-(MPUPA)Amp-Leu-Glu(tBu)-OH
[3]
  crude mass: 34.1 mg
  crude yield: 99%

## H-Val-Gly-1-(MPUPA)Amp-Leu-Asp(tBu)-OH
[2]
  crude mass: 36.0 mg
  crude yield: 99%

## H-Val-Gly-1-(MPUPA)Amp-Leu-Glu(tBu)-OH
[3]
  crude mass: 36.0 mg
  crude yield: 98%

## c[(MPUPA)Amp-Arg-Gly-Asp]
[4]
  step yield: 63%

## c[(MPUPA)Amp-Leu-Asp-Val-Gly]
[4]
  step yield: 51%

## c[(MPUPA)Amp-Leu-Asp-Val]
[4]
  step yield: 60%

## c[(MPUPA)Amp-Leu-Glu-Val-Gly]
[4]
  step yield: 28%

## c[(MPUPA)Amp-Leu-Glu-Val]
[4]
  step yield: 56%

## c[(MPUPA)Amp-Val-Asp-Leu]
[4]
  step yield: 23%

## c[(MPUPA)Amp-Val-Glu-Leu]
[4]
  step yield: 33%
